The results in this text go back to PMC6189217.

No constants are given. Whether binding was seen depends on the method and setting. In cells and extracts the contact can be indirect. A yes stands for co-enrichment or nearness to the bait. Other partners may have been found. Sequences can lack the tags named with a protein.

For this assay, the target named is T1, FLAG-PPARγ^WT (peroxisome proliferator-activated receptor gamma), stably expressed in PPARγ-null MEFs, P37238.
T1 chain: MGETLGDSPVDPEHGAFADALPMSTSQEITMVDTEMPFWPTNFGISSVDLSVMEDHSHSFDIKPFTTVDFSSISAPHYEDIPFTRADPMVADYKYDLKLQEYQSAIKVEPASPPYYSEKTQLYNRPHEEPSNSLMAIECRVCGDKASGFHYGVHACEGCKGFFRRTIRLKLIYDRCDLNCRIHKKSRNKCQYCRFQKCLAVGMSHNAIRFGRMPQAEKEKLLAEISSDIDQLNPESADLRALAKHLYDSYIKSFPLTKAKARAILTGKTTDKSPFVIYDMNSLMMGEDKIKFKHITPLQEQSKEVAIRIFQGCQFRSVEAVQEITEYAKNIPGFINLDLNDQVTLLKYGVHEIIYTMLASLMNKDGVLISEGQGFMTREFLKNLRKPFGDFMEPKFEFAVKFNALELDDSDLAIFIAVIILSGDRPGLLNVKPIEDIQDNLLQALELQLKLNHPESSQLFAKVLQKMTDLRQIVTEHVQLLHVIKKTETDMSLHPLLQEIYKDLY
Nature of the assay: affinity purification with mass spectrometry; nuclear extracts of PPARγ-null MEFs stably expressing FLAG-PPARγ^WT on FLAG M2 agarose, eluted with FLAG peptide; SDS-PAGE bands excised, trypsin, LC-MS/MS. The settings on record: remark: other sources report otherwise.

B1: TRIM25 (tripartite motif-containing 25), endogenous in MEF nuclear extract, Q61510 1-634 (protein)
chain: MAELNPLAEELSCSVCLELFKEPVTTPCGHNFCMSCLDETWVVQGPPYRCPQCRKVYQVRPQLQKNTVMCAVVEQFLQAEQARTPVDDWTPPARFSASSAATQVACDHCLTEIAVKTCLVCMASFCQEHLRPHFDSPAFQDHPLQSPIRDLLRRKCTQHNRLRELFCPEHGECICHICLVEHKTCSPTTLSQASADLEYKLRNKLTIMHSHINGATKALEDVRSKQQCVQDSMKRKMEQLRQEYMEMKAVIDAAETSSLRKLKEEEKRVYGKFDTIYQVLVKKKSEMQKLKAEVELIMDKGDEFEFLEKAAKLQGESTKPVYIPKIDLDHDLIMGIYQGAADLKSELKHSIKKLQKKSEEHNGSGNKGDQTQSTFKPVQPSKKTIQEKKTKKTPVAPGPPSHFSPNKLPTFGAPGQSLDSKATSPDAAPKASAAQPDSVGVKAKVLENFLTKSRTELLEYFVKVIFDYNTAHNKVSLSNKYTTASVSDGLQHYRSHPQRFTYCSQVLGLHCYKNGIHYWEVELQKNNFCGVGICYGSMERQGPESRLGRNPNSWCVEWFNNKISAWHNNVEKTLPSTKATRVGVLLNCDHGFVIFFAVTEKVHLMYKFKVDFTEALYPAFWVFSAGTTLSICSK
B1: the binding entry is recorded as “binds”.
